# Test results: patent publication US6774131B1, “Remedies for endothelin-induced diseases” (Yamanouchi Pharmaceutical Co., Ltd., priority 2000, dated 2004)
# Not every entry of the source has a single result; some have several. The list is limited to them. The source may hold further records. Values given together do not match, cause unknown; they may come from other doses, times, organisms or constructs than stated.
# Assay: Plasma concentration when orally administered to humans
# Details: oral, tested form: K salt
smiles,measurement,value
"COc1ccccc1Oc1c(NS(=O)(=O)C=Cc2ccccc2)nc(-c2ncccn2)nc1OC.[K] [Compound 1, N-[6-methoxy-5-(2-methoxyphenoxy)-2-(2-pyrimidinyl)-4-pyrimidinyl]-2-phenylethenesulfoneamide•potassium salt]",AUC ratio Compound 1 (10 mg)/ABT-627 (20 mg),about 18 fold and 18 fold
